Measurements published in the supplement of paper PMC7666118.
The other results are listed elsewhere or left out.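 Rule for the calls: active = dose-dependent thermal stabilisation significant by F-test of dose-response against flat model at 10% FDR; inactive = not significant.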

By UniProt entry, the sequences of proteins in these tests, tags left out. Where a name states a change or a piece, a line headed by the entry shows the natural chain unless it says otherwise.
UniProt Q8TBC4: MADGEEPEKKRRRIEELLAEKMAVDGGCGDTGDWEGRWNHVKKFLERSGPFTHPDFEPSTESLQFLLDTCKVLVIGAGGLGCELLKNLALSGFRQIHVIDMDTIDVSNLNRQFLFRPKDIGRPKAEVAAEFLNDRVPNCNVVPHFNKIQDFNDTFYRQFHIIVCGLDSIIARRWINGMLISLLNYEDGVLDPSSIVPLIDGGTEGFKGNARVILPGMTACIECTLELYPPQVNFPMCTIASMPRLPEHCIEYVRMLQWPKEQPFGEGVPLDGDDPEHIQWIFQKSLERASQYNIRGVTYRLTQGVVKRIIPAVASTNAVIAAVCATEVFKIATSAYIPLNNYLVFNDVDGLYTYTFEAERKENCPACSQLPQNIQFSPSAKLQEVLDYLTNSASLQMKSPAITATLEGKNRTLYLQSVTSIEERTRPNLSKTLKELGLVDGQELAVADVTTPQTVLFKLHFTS
UniProt Q15785: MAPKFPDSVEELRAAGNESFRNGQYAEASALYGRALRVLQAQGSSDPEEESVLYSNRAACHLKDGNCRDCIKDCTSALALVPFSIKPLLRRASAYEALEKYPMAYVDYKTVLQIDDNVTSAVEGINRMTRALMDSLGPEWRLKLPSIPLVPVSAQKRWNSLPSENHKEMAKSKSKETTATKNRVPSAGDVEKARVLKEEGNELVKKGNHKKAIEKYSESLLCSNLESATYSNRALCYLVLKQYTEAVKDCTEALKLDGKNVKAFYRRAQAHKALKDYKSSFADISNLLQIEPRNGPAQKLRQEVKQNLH
UniProt Q6ICL3: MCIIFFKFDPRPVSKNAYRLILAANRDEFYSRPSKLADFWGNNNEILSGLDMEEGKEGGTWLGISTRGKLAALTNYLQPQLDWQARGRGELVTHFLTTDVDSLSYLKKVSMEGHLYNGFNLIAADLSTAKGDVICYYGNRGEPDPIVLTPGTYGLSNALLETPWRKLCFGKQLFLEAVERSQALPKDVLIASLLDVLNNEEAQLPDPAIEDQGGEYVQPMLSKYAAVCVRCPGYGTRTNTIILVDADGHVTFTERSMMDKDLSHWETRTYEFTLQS
UniProt Q8WY91: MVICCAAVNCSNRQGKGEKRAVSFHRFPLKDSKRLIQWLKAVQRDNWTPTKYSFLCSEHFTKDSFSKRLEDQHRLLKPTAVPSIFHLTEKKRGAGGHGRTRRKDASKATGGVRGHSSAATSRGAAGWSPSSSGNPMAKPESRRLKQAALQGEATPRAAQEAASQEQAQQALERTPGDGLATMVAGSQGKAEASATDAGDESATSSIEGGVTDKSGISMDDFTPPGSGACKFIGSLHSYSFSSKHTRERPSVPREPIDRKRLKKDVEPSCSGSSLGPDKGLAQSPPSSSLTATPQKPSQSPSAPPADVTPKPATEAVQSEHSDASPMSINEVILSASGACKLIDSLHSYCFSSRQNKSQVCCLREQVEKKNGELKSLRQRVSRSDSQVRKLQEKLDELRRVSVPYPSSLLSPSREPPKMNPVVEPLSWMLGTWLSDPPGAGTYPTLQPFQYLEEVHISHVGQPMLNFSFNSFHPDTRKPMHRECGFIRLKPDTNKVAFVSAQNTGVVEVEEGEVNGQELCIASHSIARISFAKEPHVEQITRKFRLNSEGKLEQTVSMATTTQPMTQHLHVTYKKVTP
UniProt P19474, whole entry: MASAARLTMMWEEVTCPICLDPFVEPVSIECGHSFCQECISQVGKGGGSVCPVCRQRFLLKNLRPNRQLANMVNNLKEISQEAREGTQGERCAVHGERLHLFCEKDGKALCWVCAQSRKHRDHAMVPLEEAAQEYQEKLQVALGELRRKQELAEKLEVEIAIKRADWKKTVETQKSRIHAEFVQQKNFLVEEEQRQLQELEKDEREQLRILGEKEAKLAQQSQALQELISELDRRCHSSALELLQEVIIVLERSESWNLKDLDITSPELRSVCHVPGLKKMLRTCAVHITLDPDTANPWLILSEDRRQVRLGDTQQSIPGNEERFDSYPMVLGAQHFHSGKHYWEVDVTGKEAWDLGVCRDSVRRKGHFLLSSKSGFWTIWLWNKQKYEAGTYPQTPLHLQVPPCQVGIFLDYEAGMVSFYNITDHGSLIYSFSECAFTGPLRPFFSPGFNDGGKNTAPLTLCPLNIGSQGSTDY
UniProt Q96CW5, whole entry: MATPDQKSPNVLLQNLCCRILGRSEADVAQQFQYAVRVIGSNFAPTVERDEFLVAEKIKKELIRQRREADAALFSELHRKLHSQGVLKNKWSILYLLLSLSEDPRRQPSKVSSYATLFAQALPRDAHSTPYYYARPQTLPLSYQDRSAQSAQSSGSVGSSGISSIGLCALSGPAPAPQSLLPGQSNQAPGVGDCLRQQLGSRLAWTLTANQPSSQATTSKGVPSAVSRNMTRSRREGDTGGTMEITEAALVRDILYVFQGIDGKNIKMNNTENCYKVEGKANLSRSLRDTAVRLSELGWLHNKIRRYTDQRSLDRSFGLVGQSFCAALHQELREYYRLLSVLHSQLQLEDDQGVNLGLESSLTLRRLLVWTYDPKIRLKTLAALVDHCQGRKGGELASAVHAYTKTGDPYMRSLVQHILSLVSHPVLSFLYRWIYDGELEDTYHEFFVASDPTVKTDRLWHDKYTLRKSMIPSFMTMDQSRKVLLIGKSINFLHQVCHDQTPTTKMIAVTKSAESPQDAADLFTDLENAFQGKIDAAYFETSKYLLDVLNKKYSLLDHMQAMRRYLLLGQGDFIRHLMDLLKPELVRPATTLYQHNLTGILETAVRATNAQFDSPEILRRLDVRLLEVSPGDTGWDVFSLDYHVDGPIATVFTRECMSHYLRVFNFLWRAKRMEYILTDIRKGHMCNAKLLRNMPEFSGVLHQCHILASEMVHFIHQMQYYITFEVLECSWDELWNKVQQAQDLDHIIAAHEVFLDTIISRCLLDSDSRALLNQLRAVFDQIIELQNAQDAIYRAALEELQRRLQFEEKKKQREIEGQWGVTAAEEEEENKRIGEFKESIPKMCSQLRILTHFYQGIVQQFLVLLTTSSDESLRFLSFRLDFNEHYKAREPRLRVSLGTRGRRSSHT
UniProt Q96FX7: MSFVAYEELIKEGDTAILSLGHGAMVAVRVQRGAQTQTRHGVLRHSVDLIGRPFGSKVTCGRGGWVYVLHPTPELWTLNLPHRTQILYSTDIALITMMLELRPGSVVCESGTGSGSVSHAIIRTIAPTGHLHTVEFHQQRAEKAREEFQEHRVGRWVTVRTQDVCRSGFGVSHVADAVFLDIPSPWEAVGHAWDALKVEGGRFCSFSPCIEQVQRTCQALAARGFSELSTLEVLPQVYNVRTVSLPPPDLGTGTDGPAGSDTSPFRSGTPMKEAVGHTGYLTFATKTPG
UniProt P20226, whole entry: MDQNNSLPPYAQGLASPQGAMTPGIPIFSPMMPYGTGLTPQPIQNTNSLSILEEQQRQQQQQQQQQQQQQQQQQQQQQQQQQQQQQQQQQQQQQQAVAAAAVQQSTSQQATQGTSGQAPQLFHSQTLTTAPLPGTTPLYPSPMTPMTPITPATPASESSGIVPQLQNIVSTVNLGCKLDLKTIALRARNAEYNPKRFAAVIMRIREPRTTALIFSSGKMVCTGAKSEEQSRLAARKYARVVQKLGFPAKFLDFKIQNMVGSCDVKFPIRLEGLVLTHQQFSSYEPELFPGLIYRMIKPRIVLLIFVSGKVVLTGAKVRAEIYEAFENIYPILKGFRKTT
UniProt Q9BSV6: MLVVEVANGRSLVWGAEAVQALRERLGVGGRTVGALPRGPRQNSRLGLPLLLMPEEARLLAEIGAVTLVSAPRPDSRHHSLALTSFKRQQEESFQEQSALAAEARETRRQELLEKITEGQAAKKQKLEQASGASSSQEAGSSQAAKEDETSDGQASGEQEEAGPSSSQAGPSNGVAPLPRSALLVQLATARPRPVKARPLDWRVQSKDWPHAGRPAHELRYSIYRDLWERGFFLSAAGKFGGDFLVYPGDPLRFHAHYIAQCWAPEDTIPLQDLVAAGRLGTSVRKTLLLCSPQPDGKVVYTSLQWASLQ
UniProt Q99816: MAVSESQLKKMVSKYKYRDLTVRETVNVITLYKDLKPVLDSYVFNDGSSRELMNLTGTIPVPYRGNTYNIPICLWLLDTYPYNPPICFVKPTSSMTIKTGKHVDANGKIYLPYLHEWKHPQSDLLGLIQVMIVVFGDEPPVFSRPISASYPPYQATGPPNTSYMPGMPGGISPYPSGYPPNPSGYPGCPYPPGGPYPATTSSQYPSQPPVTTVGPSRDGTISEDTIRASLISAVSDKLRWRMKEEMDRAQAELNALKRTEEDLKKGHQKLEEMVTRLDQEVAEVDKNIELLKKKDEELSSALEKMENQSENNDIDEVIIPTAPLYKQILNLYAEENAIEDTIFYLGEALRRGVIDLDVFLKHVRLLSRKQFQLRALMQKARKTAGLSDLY
UniProt O14776: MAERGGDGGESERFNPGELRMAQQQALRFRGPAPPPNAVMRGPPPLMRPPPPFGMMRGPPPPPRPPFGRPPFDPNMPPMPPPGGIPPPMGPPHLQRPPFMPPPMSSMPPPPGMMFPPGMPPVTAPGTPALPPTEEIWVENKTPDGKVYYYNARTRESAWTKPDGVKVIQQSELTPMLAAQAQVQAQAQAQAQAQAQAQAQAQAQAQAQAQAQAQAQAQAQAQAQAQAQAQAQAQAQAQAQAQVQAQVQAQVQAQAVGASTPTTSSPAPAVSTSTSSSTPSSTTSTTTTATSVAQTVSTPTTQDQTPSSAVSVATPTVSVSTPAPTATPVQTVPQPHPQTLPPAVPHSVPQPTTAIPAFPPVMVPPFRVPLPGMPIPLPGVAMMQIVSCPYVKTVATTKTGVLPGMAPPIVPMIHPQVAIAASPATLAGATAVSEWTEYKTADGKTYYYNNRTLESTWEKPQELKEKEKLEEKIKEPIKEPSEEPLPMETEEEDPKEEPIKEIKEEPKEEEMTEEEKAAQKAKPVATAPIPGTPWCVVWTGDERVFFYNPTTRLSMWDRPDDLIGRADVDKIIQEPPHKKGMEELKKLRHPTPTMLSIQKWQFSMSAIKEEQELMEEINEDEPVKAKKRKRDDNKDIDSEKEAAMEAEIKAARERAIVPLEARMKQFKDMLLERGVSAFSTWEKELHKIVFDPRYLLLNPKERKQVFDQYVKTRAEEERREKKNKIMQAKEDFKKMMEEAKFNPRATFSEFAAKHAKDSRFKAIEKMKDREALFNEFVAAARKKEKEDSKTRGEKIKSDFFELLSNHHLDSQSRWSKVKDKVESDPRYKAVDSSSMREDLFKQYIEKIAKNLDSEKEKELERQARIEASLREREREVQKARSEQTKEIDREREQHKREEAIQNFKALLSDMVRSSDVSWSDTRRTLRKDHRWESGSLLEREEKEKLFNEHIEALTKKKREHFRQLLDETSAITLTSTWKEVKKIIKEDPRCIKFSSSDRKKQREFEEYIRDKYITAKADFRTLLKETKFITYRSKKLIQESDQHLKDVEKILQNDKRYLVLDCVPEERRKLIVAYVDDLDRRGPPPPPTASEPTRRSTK
UniProt Q8N5M4: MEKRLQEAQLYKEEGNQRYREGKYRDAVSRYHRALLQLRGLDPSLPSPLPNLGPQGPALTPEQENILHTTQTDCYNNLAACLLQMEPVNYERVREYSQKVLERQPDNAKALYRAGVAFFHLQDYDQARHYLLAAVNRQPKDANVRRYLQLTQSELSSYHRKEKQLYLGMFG
UniProt P29401: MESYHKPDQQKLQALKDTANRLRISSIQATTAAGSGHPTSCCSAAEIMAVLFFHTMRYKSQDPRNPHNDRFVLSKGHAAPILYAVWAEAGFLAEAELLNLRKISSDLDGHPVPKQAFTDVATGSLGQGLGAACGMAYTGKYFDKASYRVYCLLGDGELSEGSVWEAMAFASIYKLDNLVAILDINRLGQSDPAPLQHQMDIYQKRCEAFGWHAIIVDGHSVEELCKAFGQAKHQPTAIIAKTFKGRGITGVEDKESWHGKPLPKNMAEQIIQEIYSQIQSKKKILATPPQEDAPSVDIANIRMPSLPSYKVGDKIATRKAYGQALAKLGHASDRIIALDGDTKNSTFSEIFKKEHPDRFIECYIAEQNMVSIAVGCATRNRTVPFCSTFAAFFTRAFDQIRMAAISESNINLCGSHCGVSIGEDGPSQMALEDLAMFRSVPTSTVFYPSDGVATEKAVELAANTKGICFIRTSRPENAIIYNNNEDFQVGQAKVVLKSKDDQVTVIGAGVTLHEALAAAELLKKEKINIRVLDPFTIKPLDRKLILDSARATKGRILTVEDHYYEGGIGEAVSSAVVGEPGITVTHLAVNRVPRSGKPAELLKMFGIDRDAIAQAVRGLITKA
UniProt Q8WWH5: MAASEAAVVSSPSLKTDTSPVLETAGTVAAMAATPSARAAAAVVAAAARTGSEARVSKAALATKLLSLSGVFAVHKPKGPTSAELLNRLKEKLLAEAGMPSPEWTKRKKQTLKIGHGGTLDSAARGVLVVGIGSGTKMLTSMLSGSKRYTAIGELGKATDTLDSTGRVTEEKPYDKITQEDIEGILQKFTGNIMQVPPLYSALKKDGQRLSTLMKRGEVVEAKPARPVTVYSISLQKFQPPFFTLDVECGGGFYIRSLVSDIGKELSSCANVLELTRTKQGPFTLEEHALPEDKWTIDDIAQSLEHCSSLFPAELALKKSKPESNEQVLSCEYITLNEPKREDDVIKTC

The targets below were run with Nc1nc2c(ncn2[C@@H]2O[C@H](COP(=O)(O)OP(=O)(O)OP(=O)(O)O)[C@@H](O)[C@H]2O)c(=O)[nH]1 (assay: dose-dependent thermal stabilisation call (2D-TPP, DLPTP, 10% FDR) (binary (1 = stabilised)); higher = stabilised by the compound). Conditions: system: Jurkat gel-filtered lysate; concentration range 1-500 µM.
Protocol: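 2D thermal proteome profiling in gel-filtered Jurkat E6.1 lysate (2 mg/ml) treated with NaGTP (0, 1, 10, 100, 500 uM) for 10 min at room temperature, then heated 3 min at one of 12 temperatures (42-63.9 C). Soluble protein was quantified by TMT10 MS. The value is the DLPTP call of the paper: dose-dependent thermal stabilisation over all temperatures at 10% FDR (F-test of a dose-response against a flat model); one experiment, one call per tested protein.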

Target	dose-dependent thermal stabilisation call
TRAF6 (UniProt Q9Y4K3)	inactive: 0
UBA3 (UniProt Q8TBC4)	inactive: 0
TMEM102 (UniProt Q8N9M5)	active: 1
THUMPD3 (UniProt Q9BV44)	inactive: 0
TIAL1 (UniProt Q01085)	inactive: 0
TPM4 (UniProt P67936)	inactive: 0
TOMM34 (UniProt Q15785)	active: 1
TNPO1 (UniProt Q92973)	active: 1
TP53I3 (UniProt Q53FA7)	inactive: 0
TANGO2 (UniProt Q6ICL3)	inactive: 0
TRRAP (UniProt Q9Y4A5)	inactive: 0
TSTA3 (UniProt Q13630)	inactive: 0
TGFBRAP1 (UniProt Q8WUH2)	inactive: 0
TRMT112 (UniProt Q9UI30)	inactive: 0
TCF20 (UniProt Q9UGU0)	inactive: 0
TBPL1 (UniProt P62380)	inactive: 0
THAP4 (UniProt Q8WY91)	inactive: 0
TRIM21 (UniProt P19474)	active: 1
TUBGCP3 (UniProt Q96CW5)	active: 1
TRMT61A (UniProt Q96FX7)	active: 1

Target	dose-dependent thermal stabilisation call
TBP (UniProt P20226)	inactive: 0
TANK (UniProt Q92844)	inactive: 0
TTC5 (UniProt Q8N0Z6)	active: 1
TSEN34 (UniProt Q9BSV6)	inactive: 0
TECPR1 (UniProt Q7Z6L1)	inactive: 0
TSG101 (UniProt Q99816)	inactive: 0
THAP12 (UniProt O43422)	inactive: 0
TBL1X (UniProt O60907)	inactive: 0
TRAF3IP3 (UniProt Q9Y228)	inactive: 0
TRIM25 (UniProt Q14258)	inactive: 0
TRAPPC4 (UniProt Q9Y296)	inactive: 0
TSSC4 (UniProt Q9Y5U2)	inactive: 0
TCERG1 (UniProt O14776)	inactive: 0
TTC9C (UniProt Q8N5M4)	inactive: 0
TKT (UniProt P29401)	inactive: 0
TIPRL (UniProt O75663)	inactive: 0
TRNAU1AP (UniProt Q9NX07)	inactive: 0
TRUB1 (UniProt Q8WWH5)	active: 1
TLN1 (UniProt Q9Y490)	inactive: 0
TROVE2 (UniProt P10155)	inactive: 0

At a glance, some entries already given:
Target	dose-dependent thermal stabilisation call
TSSC4 (UniProt Q9Y5U2)	inactive: 0
TCERG1 (UniProt O14776)	inactive: 0
